Source: PubChem BioAssay AID248 (DTP/NCI, 2004)
The list is a part of this screen's results and no random one: it gathers tests that were run many times, whatever their T/C, doses with no T/C, and many T/C values between a quarter and a half above the control. Other doses and runs of a compound stand elsewhere. T/C: endpoint of the treated group in % of that of the vehicle group. Some doses have a count of surviving animals in place of a T/C: the source holds a T/C of zero for them, seemingly a mark for toxic or unscored doses. Some doses without a T/C left all or most animals alive at the check, yet need not have been tolerated: survival well below the control is almost never listed, so the zero probably covers shortened survival too. Survivors were counted at the toxicity check, usually on the fifth day, unless a day is given; later deaths do not show. Schedule codes are those of the source, taken here to give the interval after Q, in days (D) or hours (H), and the number of doses after X. Counts like (3×) count equal records among those shown. Some entries hold several experiments; the values are given in rising order. For survival time, the PubChem record calls one and a half times the control and up active, and a quarter to a half above the control has no call in these data; cut-offs in other NCI protocols can differ. Some T/C values carry the count of animals alive at the toxicity check (mostly the fifth day); without a count, all were alive then.

System: L1210 leukemia ip in BDF1 mice, survival T/C
Assay: NCI In Vivo Anticancer Drug Screen. Data for tumor model L1210 Leukemia (intraperitoneal) in B6D2F1 (BDF1) mice
Details: T/C endpoint: mean survival time, higher T/C = longer survival
[1] = dose: 100.0 mg/kg/injection, schedule: Q04DX003 (ip), vehicle: Klucel (hydroxypropylcellulose) (HPC)
[2] = dose: 200.0 mg/kg/injection, schedule: Q04DX003 (ip), vehicle: Klucel (hydroxypropylcellulose) (HPC)
[3] = dose: 400.0 mg/kg/injection, schedule: Q04DX003 (ip), vehicle: Klucel (hydroxypropylcellulose) (HPC)
[4] = dose: 400.0 mg/kg/injection, schedule: Q01DX001 (ip), vehicle: carboxymethylcellulose (CMC)
[5] = dose: 100.0 mg/kg/injection, schedule: Q01DX009 (ip), vehicle: saline with Tween-80
[6] = dose: 200.0 mg/kg/injection, schedule: Q01DX001 (ip), vehicle: carboxymethylcellulose (CMC)
[7] = dose: 400.0 mg/kg/injection, schedule: Q04DX003 (ip), vehicle: saline
[8] = dose: 400.0 mg/kg/injection, schedule: Q04DX003 (ip), vehicle: saline with Tween-80
[9] = dose: 100.0 mg/kg/injection, schedule: Q01DX001 (ip), vehicle: saline with Tween-80

CC(CCC(=O)O)(NC(=O)c1ccc(NCc2ccc3nc(N)nc(N)c3c2)cc1)C(=O)O (stereo not drawn)
T/C (dose: 2.0 mg/kg/injection, schedule: Q04DX003 (ip), vehicle: saline): 126 % of control [5 of 6 alive]
survivor count (dose: 4.0 mg/kg/injection, schedule: Q01DX009 (ip), vehicle: saline): 5 of 6
T/C (dose: 4.0 mg/kg/injection, schedule: Q04DX003 (ip), vehicle: saline): 125 % of control
survivor count (dose: 8.0 mg/kg/injection, schedule: Q01DX009 (ip), vehicle: saline): 3 of 6
T/C (dose: 32.0 mg/kg/injection, schedule: Q04DX003 (ip), vehicle: saline): 125 % of control

CNC(Cc1ccccc1)C1CCCCC1 (stereo not drawn)
survivor count (dose: 50.0 mg/kg/injection, schedule: Q04DX003 (ip), vehicle: Klucel (hydroxypropylcellulose) (HPC)): 6 of 6
survivor count [1]: 0 of 6 and 4 of 6
survivor count [2]: 0 of 6
survivor count [3]: 0 of 6

O=C(Nc1ccsc1)c1ccccc1
T/C [4]: 125 % of control

Nc1c(F)c(F)c(N)c(F)c1F
survivor count (dose: 200.0 mg/kg/injection, schedule: Q01DX001 (ip), vehicle: acetone): 4 of 6

CCS(=O)(=O)Nc1cccc(Nc2c3cccc(C)c3nc3c(C)cccc23)c1OC
T/C (dose: 6.25 mg/kg/injection, schedule: Q01DX009 (ip), vehicle: saline with Tween-80): 141 % of control
T/C (dose: 8.2 mg/kg/injection, schedule: Q01DX009 (ip), vehicle: saline): 125 % of control
T/C (dose: 25.0 mg/kg/injection, schedule: Q04DX003 (ip), vehicle: saline): 142 % of control
T/C (dose: 50.0 mg/kg/injection, schedule: Q01DX009 (sc), vehicle: Klucel (hydroxypropylcellulose) (HPC)): 130 % of control
survivor count [5]: 6 of 6
T/C (dose: 100.0 mg/kg/injection, schedule: Q01DX009 (sc), vehicle: Klucel (hydroxypropylcellulose) (HPC)): 137 % of control
survivor count (dose: 200.0 mg/kg/injection, schedule: Q04DX003 (ip), vehicle: saline): 9 of 10

C[CH2][Pb]([CH2]C)([CH2]C)[S]C(C)=O
survivor count (dose: 6.0 mg/kg/injection, schedule: Q01DX009 (ip), vehicle: Klucel (hydroxypropylcellulose) (HPC)): 5 of 6
survivor count (dose: 6.25 mg/kg/injection, schedule: Q01DX009 (ip), vehicle: Klucel (hydroxypropylcellulose) (HPC)): 3 of 3
survivor count (dose: 12.5 mg/kg/injection, schedule: Q01DX009 (ip), vehicle: Klucel (hydroxypropylcellulose) (HPC)): 1 of 3
survivor count (dose: 25.0 mg/kg/injection, schedule: Q01DX009 (ip), vehicle: Klucel (hydroxypropylcellulose) (HPC)): 0 of 3
survivor count (dose: 25.0 mg/kg/injection, schedule: Q04DX002 (ip), vehicle: Klucel (hydroxypropylcellulose) (HPC)): 1 of 3
survivor count (dose: 50.0 mg/kg/injection, schedule: Q04DX002 (ip), vehicle: Klucel (hydroxypropylcellulose) (HPC)): 0 of 3
survivor count (dose: 100.0 mg/kg/injection, schedule: Q04DX002 (ip), vehicle: Klucel (hydroxypropylcellulose) (HPC)): 0 of 3
survivor count (dose: 200.0 mg/kg/injection, schedule: Q04DX002 (ip), vehicle: Klucel (hydroxypropylcellulose) (HPC)): 0 of 3
survivor count (dose: 400.0 mg/kg/injection, schedule: Q04DX002 (ip), vehicle: Klucel (hydroxypropylcellulose) (HPC)): 0 of 3

CCOC(=O)C(CN(CC)CC)c1ccccc1 (stereo not drawn)
T/C [6]: 129 % of control

CCC(=O)CC1CCCC(CC(=O)CC)N1C (stereo not drawn)
survivor count (dose: 75.0 mg/kg/injection, schedule: Q01DX001 (ip), vehicle: saline): 3 of 6
survivor count (dose: 150.0 mg/kg/injection, schedule: Q01DX001 (ip), vehicle: saline): 0 of 6
survivor count (dose: 300.0 mg/kg/injection, schedule: Q01DX001 (ip), vehicle: saline): 0 of 6

CC12CCc3occc3C1CCC13CC(CO)C(O)(CCC12)C3 (stereo not drawn)
survivor count [7]: 2 of 4

C=CC(=O)OCC(C)([N+](=O)[O-])[N+](=O)[O-]
survivor count (dose: 200.0 mg/kg/injection, schedule: Q01DX009 (ip), vehicle: saline with Tween-80): 1 of 6
survivor count [8]: 0 of 6

O=C(NCCCCN1CC1)C(=O)NCCCCN1CC1
T/C (dose: 5.5 mg/kg/injection, schedule: Q04DX003 (ip), vehicle: Klucel (hydroxypropylcellulose) (HPC)): 147 % of control
T/C (dose: 6.0 mg/kg/injection, schedule: Q04DX003 (ip), vehicle: Klucel (hydroxypropylcellulose) (HPC)): 135 % of control
T/C (dose: 6.25 mg/kg/injection, schedule: Q04DX003 (ip), vehicle: Klucel (hydroxypropylcellulose) (HPC)): 139 % of control
T/C (dose: 12.0 mg/kg/injection, schedule: Q04DX003 (ip), vehicle: Klucel (hydroxypropylcellulose) (HPC)): 145 % of control
T/C (dose: 12.5 mg/kg/injection, schedule: Q04DX003 (ip), vehicle: Klucel (hydroxypropylcellulose) (HPC)): 149 % of control
T/C (dose: 25.0 mg/kg/injection, schedule: Q04DX003 (ip), vehicle: Klucel (hydroxypropylcellulose) (HPC)): 133 % of control
survivor count [1]: 0 of 6
survivor count [2]: 0 of 6
survivor count [3]: 0 of 6

O=C1CC2CC(=O)CC2C1 (stereo not drawn)
survivor count (dose: 400.0 mg/kg/injection, schedule: Q01DX009 (ip), vehicle: saline): 0 of 6

Nc1ncnc2nc(-c3ccc(OCCCOc4ccccc4)c(Cl)c3)[nH]c12
survivor count (dose: 25.0 mg/kg/injection, schedule: Q01DX001 (ip), vehicle: saline with Tween-80): 6 of 6 (2×)
survivor count [9]: 6 of 6

CN1CSCC1C(=O)O (stereo not drawn)
survivor count [7]: 5 of 6

C=C1C(=O)OC2C1C(O)C(OC(=O)/C(C)=C\C)C(C)=C1CC3OC3(C)C12 (stereo not drawn)
survivor count [9]: 0 of 6

CC(C)(C)C(=O)Nc1ccncc1
survivor count (dose: 50.0 mg/kg/injection, schedule: Q01DX001 (ip), vehicle: saline): 0 of 6
survivor count (dose: 100.0 mg/kg/injection, schedule: Q01DX001 (ip), vehicle: saline): 0 of 6
survivor count (dose: 200.0 mg/kg/injection, schedule: Q01DX001 (ip), vehicle: saline): 0 of 6

Cc1c[n+]([O-])cc(C)c1N=Nc1ccc(N(C)C)cc1
survivor count [8]: 4 of 6

CCOc1ccccc1NC(=S)NC1CCCCC1
survivor count (dose: 400.0 mg/kg/injection, schedule: Q01DX009 (ip), vehicle: Klucel (hydroxypropylcellulose) (HPC)): 0 of 6

O=C1c2ccccc2C(=O)N1c1cc(=O)[nH]c(=O)[nH]1
survivor count [1]: 2 of 6

Cc1cc2c(cn1)C(=O)C=CC2=O
survivor count (dose: 20.0 mg/kg/injection, schedule: Q01DX001 (ip), vehicle: carboxymethylcellulose (CMC)): 0 of 4
survivor count (dose: 40.0 mg/kg/injection, schedule: Q01DX001 (ip), vehicle: carboxymethylcellulose (CMC)): 0 of 4
survivor count (dose: 50.0 mg/kg/injection, schedule: Q01DX001 (ip), vehicle: carboxymethylcellulose (CMC)): 0 of 4
survivor count (dose: 80.0 mg/kg/injection, schedule: Q01DX001 (ip), vehicle: carboxymethylcellulose (CMC)): 0 of 4
survivor count (dose: 100.0 mg/kg/injection, schedule: Q01DX001 (ip), vehicle: carboxymethylcellulose (CMC)): 0 of 4
survivor count [6]: 0 of 4
survivor count [4]: 0 of 4

CCCCCCCCCCCC(=O)NC(=S)Nc1ccccc1Cl
survivor count [1]: 6 of 6
survivor count [2]: 4 of 6
survivor count [3]: 3 of 6

CC[C@@]1(O)c2cc3n(c(=O)c2CO[C@H]1O)Cc1cc2ccccc2nc1-3
T/C (dose: 24.0 mg/kg/injection, schedule: Q01DX007 (ip), vehicle: other): 139 % of control

Nc1ccc(CCCCc2ccccc2)cc1
survivor count [5]: 5 of 6

Cc1ccc(NC(=O)N(C)N)cc1
survivor count (dose: 300.0 mg/kg/injection, schedule: Q01DX001 (ip), vehicle: carboxymethylcellulose (CMC)): 2 of 6

CCCCOP(=O)(/C=C/c1ccccc1)OCCCC
survivor count (dose: 400.0 mg/kg/injection, schedule: Q04DX002 (ip), vehicle: saline with Tween-80): 0 of 3

C=C1C(=O)OC2CCCCCCC12 (stereo not drawn)
survivor count (dose: 200.0 mg/kg/injection, schedule: Q01DX009 (ip), vehicle: saline): 1 of 3

CC(C)(C#N)c1ccnc2ccccc12
survivor count (dose: 50.0 mg/kg/injection, schedule: Q01DX009 (ip), vehicle: Klucel (hydroxypropylcellulose) (HPC)): 2 of 6
survivor count [1]: 0 of 6
survivor count [2]: 0 of 6
survivor count [3]: 0 of 6
